Measured values reported in patent publication US20030215913A1.

Molecular target: TGF-beta 1.2 (Homo sapiens (Human))
Assay: BIAcore 2000 SPR, LP226 amine-coupled to CM5 chip, ligand injected

binding: binds
B1: LP226 (protein)
chain: RARPDMFCLFHGKRYSPGESWHPYLEPQGLMYCLRCTCSEGAHVSCYRLHCPPVHCPQPVTEPQQCCPKCVEPHTPSGLRAPPKSCQHNGTMYQHGEIFSAHELFPSRLPNQCVLCSCTEGQIYCGLTTCPEPGCPAPLPLPDSCCQACKDEASEQSDEEDSVQSLHGVRHPQDPCSSDAGRKRGPGTPAPTGLSAPLSFIPRHFRPKGAGSTTVKIVLKEKHKKACVHGGKTYSHGEVWHPAFRAFGPLPCILCTCEDGRQDCQRVTCPTEYPCRHPEKVAGKCCKICPEDKADPGHSEISSTRCPKAPGRVLVHTSVSPSPDNLRRFALEHEASDLVEIYLWKLVKGIFHLTQIKKVRKQDFQKEAQHFRLLAGPHEGHWNVFLAQTLELKVTASPDKVTKT

Results are given in words; binding and its absence hold for the method and conditions named. Binding can be weak; no strength is given.
